# Data taken from publication PMC5429825.
# By UniProt entry, the sequences of proteins in these tests, tags left out.
# UniProt O00429: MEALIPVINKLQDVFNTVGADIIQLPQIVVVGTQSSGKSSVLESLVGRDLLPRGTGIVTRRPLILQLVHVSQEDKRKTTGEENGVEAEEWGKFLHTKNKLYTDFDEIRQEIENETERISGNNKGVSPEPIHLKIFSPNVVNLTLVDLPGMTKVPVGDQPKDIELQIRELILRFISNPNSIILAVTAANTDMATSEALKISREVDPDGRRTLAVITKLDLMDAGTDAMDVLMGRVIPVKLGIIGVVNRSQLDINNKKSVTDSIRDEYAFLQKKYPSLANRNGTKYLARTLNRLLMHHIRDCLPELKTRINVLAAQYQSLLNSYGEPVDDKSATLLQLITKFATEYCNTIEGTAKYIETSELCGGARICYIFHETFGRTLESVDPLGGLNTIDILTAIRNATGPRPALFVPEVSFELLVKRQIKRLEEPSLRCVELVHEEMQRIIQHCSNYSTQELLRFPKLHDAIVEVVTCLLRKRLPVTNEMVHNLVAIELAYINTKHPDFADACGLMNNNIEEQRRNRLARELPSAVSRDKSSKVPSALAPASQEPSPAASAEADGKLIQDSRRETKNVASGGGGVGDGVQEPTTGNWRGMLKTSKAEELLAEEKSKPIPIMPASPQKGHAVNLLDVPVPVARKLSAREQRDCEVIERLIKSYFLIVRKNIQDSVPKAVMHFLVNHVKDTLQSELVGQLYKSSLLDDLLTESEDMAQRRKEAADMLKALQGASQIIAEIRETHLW
# Read-outs that look alike come from different tables or passages of the source. These are yes or no findings as the source states them, for the method shown. Binding seen in cells or lysates may run through a third protein. Some entries that bind do so weakly or less than the wild type. For some of these results: Tags and fused reporters may be left off the sequences shown.
# B1: Flag-Mff (protein, UniProt Q9GZY8 1-342)
# chain: MSKGTSSDTSLGRVSRAAFPSPTAAEMAEISRIQYEMEYTEGISQRMRVPEKLKVAPPNADLEQGFQEGVPNASVIMQVPERIVVAGNNEDVSFSRPADLDLIQSTPFKPLALKTPPRVLTLSERPLDFLDLERPPTTPQNEEIRAVGRLKRERSMSENAVRQNGQLVRNDSLWHRSDSAPRNKISRFQAPISAPEYTVTPSPQQARVCPPHMLPEDGANLSSARGILSLIQSSTRRAYQQILDVLDENRRPVLRGGSAAATSNPHHDNVRYGISNIDTTIEGTSDDLTVVDAASLRRQIIKLNRRLQLLEEENKERAKREMVMYSITVAFWLLNSWLWFRR
# B2: wild-type Mff co-expressed with V5-tagged MIEFs (Fig. 6B) (protein, UniProt Q9GZY8 1-342)
# chain: MSKGTSSDTSLGRVSRAAFPSPTAAEMAEISRIQYEMEYTEGISQRMRVPEKLKVAPPNADLEQGFQEGVPNASVIMQVPERIVVAGNNEDVSFSRPADLDLIQSTPFKPLALKTPPRVLTLSERPLDFLDLERPPTTPQNEEIRAVGRLKRERSMSENAVRQNGQLVRNDSLWHRSDSAPRNKISRFQAPISAPEYTVTPSPQQARVCPPHMLPEDGANLSSARGILSLIQSSTRRAYQQILDVLDENRRPVLRGGSAAATSNPHHDNVRYGISNIDTTIEGTSDDLTVVDAASLRRQIIKLNRRLQLLEEENKERAKREMVMYSITVAFWLLNSWLWFRR
# B3: Myc-Mff (protein, UniProt Q9GZY8 1-342)
# chain: MSKGTSSDTSLGRVSRAAFPSPTAAEMAEISRIQYEMEYTEGISQRMRVPEKLKVAPPNADLEQGFQEGVPNASVIMQVPERIVVAGNNEDVSFSRPADLDLIQSTPFKPLALKTPPRVLTLSERPLDFLDLERPPTTPQNEEIRAVGRLKRERSMSENAVRQNGQLVRNDSLWHRSDSAPRNKISRFQAPISAPEYTVTPSPQQARVCPPHMLPEDGANLSSARGILSLIQSSTRRAYQQILDVLDENRRPVLRGGSAAATSNPHHDNVRYGISNIDTTIEGTSDDLTVVDAASLRRQIIKLNRRLQLLEEENKERAKREMVMYSITVAFWLLNSWLWFRR
# B4: MIEF2, endogenous (protein, UniProt Q96C03 1-454)
# chain: MAEFSQKRGKRRSDEGLGSMVDFLLANARLVLGVGGAAVLGIATLAVKRFIDRATSPRDEDDTKADSWKELSLLKATPHLQPRPPPAALSQPVLPLAPSSSAPEGPAETDPEVTPQLSSPAPLCLTLQERLLAFERDRVTIPAAQVALAKQLAGDIALELQAYFRSKFPELPFGAFVPGGPLYDGLQAGAADHVRLLVPLVLEPGLWSLVPGVDTVARDPRCWAVRRTQLEFCPRGSSPWDRFLVGGYLSSRVLLELLRKALAASVNWPAIGSLLGCLIRPSMASEELLLEVQHERLELTVAVLVAVPGVDADDRLLLAWPLEGLAGNLWLQDLYPVEAARLRALDDHDAGTRRRLLLLLCAVCRGCSALGQLGRGHLTQVVLRLGEDNVDWTEEALGERFLQALELLIGSLEQASLPCHFNPSVNLFSSLREEEIDDIGYALYSGLQEPEGLL
# Legend:
# [1] = biological target: T1, Mff, endogenous (human (endogenous in 293T)) (UniProt Q9GZY8); test: co-IP; endogenous levels; 293T lysates, goat anti-Mff antibody (goat normal IgG as negative control), immunoblot; also after MIEF1/2 siRNA or in MIEF1/2 DKO cells (Mff-Drp1 severely reduced) and after Drp1 siRNA (MIEF-Mff not disrupted)
# T1 sequence: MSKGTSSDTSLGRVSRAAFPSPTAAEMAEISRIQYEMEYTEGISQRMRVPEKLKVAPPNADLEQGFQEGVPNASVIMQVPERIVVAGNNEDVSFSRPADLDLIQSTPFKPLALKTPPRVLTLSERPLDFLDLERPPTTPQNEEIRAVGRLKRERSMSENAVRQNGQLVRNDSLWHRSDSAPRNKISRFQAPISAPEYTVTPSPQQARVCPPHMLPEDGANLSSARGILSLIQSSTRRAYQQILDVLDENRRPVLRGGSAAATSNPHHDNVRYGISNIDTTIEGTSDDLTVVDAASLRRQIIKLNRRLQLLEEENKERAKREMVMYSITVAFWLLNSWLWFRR
# MIEF1^Δ160–169 [2] = biological target: T2, MIEF1^Δ160–169 (UniProt Q9NQG6); test: co-IP; 293T transfected with V5-tagged MIEF1 or MIEF2 (wild type or deletion mutants), alone or with Mff plasmid; also after Mff siRNA or Drp1 siRNA; lysates, anti-V5 beads, immunoblot
# T2 sequence: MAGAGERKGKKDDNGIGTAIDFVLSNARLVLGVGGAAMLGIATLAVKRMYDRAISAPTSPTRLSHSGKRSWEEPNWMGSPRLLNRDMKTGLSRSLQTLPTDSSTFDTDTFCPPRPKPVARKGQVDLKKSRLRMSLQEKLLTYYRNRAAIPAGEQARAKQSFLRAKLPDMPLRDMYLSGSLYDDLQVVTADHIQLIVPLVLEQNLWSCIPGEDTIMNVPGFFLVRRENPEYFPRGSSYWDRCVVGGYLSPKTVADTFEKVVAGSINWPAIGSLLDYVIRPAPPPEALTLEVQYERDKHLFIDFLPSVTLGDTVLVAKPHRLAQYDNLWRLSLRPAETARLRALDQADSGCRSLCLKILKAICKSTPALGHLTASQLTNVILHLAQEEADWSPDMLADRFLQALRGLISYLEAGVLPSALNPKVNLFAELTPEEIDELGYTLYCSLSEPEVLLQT
# MIEF2^Δ151–160 [3] = biological target: T3, MIEF2^Δ151–160 (UniProt Q96C03); test: as above
# T3 sequence: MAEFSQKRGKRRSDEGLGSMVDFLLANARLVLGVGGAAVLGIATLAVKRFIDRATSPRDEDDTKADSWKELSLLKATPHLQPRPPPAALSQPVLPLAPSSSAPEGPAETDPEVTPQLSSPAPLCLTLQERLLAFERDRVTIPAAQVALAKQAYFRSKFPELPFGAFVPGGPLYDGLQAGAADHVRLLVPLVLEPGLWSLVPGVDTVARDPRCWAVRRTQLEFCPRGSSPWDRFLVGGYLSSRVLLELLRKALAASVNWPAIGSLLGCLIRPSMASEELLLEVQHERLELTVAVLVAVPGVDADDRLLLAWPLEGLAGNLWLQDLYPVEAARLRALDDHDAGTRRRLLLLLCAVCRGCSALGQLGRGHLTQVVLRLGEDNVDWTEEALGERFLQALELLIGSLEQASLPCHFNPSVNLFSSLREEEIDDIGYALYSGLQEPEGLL
# MIEF2^Δ1–49 = biological target: T4, MIEF2^Δ1–49 (UniProt Q96C03); test: as above
# T4 sequence: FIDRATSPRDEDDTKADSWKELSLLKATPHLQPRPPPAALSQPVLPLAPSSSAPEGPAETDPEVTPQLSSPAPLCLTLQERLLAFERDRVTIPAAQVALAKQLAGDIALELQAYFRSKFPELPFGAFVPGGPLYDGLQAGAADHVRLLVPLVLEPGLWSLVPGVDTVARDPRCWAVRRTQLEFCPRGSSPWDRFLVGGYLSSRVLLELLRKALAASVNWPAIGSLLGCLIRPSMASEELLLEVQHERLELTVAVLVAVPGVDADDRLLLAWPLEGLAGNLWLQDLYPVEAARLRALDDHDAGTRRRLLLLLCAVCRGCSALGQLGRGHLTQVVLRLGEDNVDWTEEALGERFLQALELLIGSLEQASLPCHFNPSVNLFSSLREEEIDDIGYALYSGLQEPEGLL
# MIEF1^Δ1–48 = biological target: T5, MIEF1^Δ1–48 (UniProt Q9NQG6); test: as above
# T5 sequence: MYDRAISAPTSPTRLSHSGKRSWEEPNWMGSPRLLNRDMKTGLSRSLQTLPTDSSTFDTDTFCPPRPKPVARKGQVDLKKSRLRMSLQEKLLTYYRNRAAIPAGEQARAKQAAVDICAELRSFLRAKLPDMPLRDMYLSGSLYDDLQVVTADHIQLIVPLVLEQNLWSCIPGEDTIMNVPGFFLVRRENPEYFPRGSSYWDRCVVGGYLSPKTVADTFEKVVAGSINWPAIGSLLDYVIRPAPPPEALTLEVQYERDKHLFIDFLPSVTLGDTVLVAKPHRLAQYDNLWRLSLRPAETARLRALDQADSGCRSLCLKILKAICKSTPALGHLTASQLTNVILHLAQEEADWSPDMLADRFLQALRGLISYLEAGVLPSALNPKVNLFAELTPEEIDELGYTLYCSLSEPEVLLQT
# MIEF1-V5 [4] = biological target: MIEF1-V5 (UniProt Q9NQG6); test: as above
# MIEF2-V5 [5] = biological target: T6, MIEF2-V5 (UniProt Q96C03); test: as above
# T6 sequence: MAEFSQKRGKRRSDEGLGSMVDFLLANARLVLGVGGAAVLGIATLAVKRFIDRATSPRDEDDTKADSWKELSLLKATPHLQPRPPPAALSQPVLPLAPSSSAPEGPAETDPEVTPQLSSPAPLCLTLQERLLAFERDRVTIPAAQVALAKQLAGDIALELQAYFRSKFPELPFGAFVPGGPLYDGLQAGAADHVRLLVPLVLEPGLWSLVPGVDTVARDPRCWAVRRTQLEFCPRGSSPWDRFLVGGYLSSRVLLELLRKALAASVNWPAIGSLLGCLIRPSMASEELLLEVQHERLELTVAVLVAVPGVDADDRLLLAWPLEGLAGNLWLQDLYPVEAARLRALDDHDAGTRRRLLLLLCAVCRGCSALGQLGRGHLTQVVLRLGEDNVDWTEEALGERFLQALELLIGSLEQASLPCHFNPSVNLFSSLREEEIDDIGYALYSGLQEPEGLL
# MIEF1-V5 [6] = biological target: MIEF1-V5 (UniProt Q9NQG6); test: co-IP; sequential co-IP: 293T co-transfected with MIEF1-V5 and Myc-Mff, cross-linked in vivo with 1% formaldehyde; first anti-V5 beads, elution with V5 peptide, second anti-Myc beads overnight at 4 °C; immunoblot
# MIEF1-V5 [7] = biological target: MIEF1-V5 (UniProt Q9NQG6); test: co-IP; competition by co-expression: 293T co-transfected with 0.3 µg MIEF1-V5 or MIEF2-V5 and Flag-Mff in different amounts; lysates, anti-V5 agarose, immunoblot
# MIEF2-V5 [8] = biological target: T6, MIEF2-V5; test: as above
# MIEF1-V5 [9] = biological target: MIEF1-V5 (UniProt Q9NQG6); test: co-IP; 293T transfected with V5-tagged MIEF1 or MIEF2 (wild type or deletion mutants), alone or with Mff plasmid; also after Mff siRNA or Drp1 siRNA; lysates, anti-V5 beads, immunoblot; remark: listed apart in the source
# MIEF2-V5 [10] = biological target: T6, MIEF2-V5; test: as above; remark: listed apart in the source
# MIEF1^Δ160–169 [11] = biological target: T2, MIEF1^Δ160–169; test: as above; remark: listed apart in the source
# MIEF2^Δ151–160 [12] = biological target: T3, MIEF2^Δ151–160; test: as above; remark: listed apart in the source
molecule,measurement,setting,value
"MIEF1, endogenous (from UniProt Q9NQG6 1-463)",binding,[1],binds
"Drp1 (dynamin-related GTPase), endogenous (from UniProt O00429 1-736)",binding,MIEF1^Δ160–169 [2],binds weakly
same,binding,MIEF2^Δ151–160 [3],binds weakly
same,binding,MIEF2^Δ1–49,binds
same,binding,MIEF1^Δ1–48,binds
same,binding,MIEF1-V5 [4],binds
same,binding,MIEF2-V5 [5],binds
same,binding,MIEF1-V5 [6],binds
same,binding,MIEF1-V5 [7],binds
same,binding,MIEF2-V5 [8],binds
B1,binding,MIEF1-V5 [9],binds
same,binding,MIEF2-V5 [10],binds
B2,binding,MIEF1^Δ160–169 [11],binds
same,binding,MIEF2^Δ151–160 [12],binds
B3,binding,MIEF1-V5 [6],binds
B4,binding,[1],binds
